Reference: PubChem BioAssay AID328 (DTP/NCI, 2004)
The list does not hold the whole screen: it gathers tests that were run many times, whatever their T/C, doses with no T/C, and many T/C values between a quarter and a half above the control. Other doses and runs of a compound stand elsewhere. T/C is the treated group as % of the vehicle group. Some doses have a count of surviving animals in place of a T/C: the source holds a T/C of zero for them, seemingly a mark for toxic or unscored doses. Some survivor counts are full or nearly so, which does not show that the dose was tolerated: survival well below the control is almost never listed, so the zero probably covers shortened survival too. Counts of survivors are from the toxicity check (mostly the fifth day) where no day follows; animals may have died later. Schedule codes are those of the source, read here as Q, the interval in days (D) or hours (H), X, the number of doses. Some molecules as drawn cover several salts, stereoisomers or complexes of the source; a dose is that of the sample tested. Brackets with × count equal records among those shown. Some entries hold several experiments; their values stand side by side, smallest first. For survival time, the PubChem record calls one and a half times the control and up active, and a quarter to a half above the control has no call in these data; cut-offs in other NCI protocols can differ. Some T/C values are followed by the survivors on the day toxicity was checked, most often the fifth; without a count, all were alive then.

Test system: BDF1 mice, P388 leukemia ip, median survival T/C
Test: NCI In Vivo Anticancer Drug Screen. Data for tumor model P388 Leukemia (intraperitoneal) in B6D2F1 (BDF1) mice
Conditions: T/C endpoint: median survival time, higher T/C = longer survival
Summary of the method: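 Antitumour effect was judged in vivo: survival in drug-treated mice, normalised to that of vehicle-dosed controls, gives the reported T/C.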

[1] = dose: 25.0 micrograms/kg/injection, schedule: Q01DX009 (ip), vehicle: saline + alcohol
[2] = dose: 50.0 micrograms/kg/injection, schedule: Q01DX009 (ip), vehicle: saline + alcohol
[3] = dose: 25.0 mg/kg/injection, schedule: Q01DX009 (ip), vehicle: saline
[4] = dose: 100.0 mg/kg/injection, schedule: Q01DX009 (ip), vehicle: saline
[5] = dose: 200.0 mg/kg/injection, schedule: Q04DX003 (ip), vehicle: saline
[6] = dose: 100.0 mg/kg/injection, schedule: Q01DX009 (ip), vehicle: saline with Tween-80
[7] = dose: 19.0 mg/kg/injection, schedule: Q04DX003 (ip), vehicle: Klucel (hydroxypropylcellulose) (HPC)
[8] = dose: 50.0 mg/kg/injection, schedule: Q01DX009 (ip), vehicle: saline
[9] = dose: 200.0 mg/kg/injection, schedule: Q01DX009 (ip), vehicle: saline
[10] = dose: 300.0 mg/kg/injection, schedule: Q04DX003 (ip), vehicle: saline
[11] = dose: 400.0 mg/kg/injection, schedule: Q01DX009 (ip), vehicle: saline
[12] = dose: 400.0 mg/kg/injection, schedule: Q04DX003 (ip), vehicle: saline

SMILES: COC1=C(N=[N+]=[N-])C(=O)C(OC)=C(N=[N+]=[N-])C1=O
- survivor count (dose: 60.0 mg/kg/injection, schedule: Q04DX003 (ip), vehicle: saline): 3 of 6
- survivor count (dose: 135.0 mg/kg/injection, schedule: Q04DX003 (ip), vehicle: saline): 1 of 6

SMILES: COc1cc2cc(c1Cl)N(C)C(=O)CC(OC(=O)C(F)(F)F)C1(C)OC1C(C)C1CC(O)(NC(=O)O1)C(OC)C=C/C=C(\C)C2 (stereo unspecified)
- T/C [1]: 130 % of control
- T/C [2]: 130 % of control
- T/C (dose: 200.0 micrograms/kg/injection, schedule: Q01DX009 (ip), vehicle: saline + alcohol): 140 % of control

SMILES: CC1=NNC(=O)C1CCO (stereo unspecified)
- survivor count (dose: 100.0 mg/kg/injection, schedule: Q01DX009 (ip), vehicle: Klucel (hydroxypropylcellulose) (HPC)): 3 of 3
- T/C (dose: 200.0 mg/kg/injection, schedule: Q01DX009 (ip), vehicle: Klucel (hydroxypropylcellulose) (HPC)): 126 % of control
- T/C (dose: 400.0 mg/kg/injection, schedule: Q01DX009 (ip), vehicle: Klucel (hydroxypropylcellulose) (HPC)): 127 and 147 % of control

SMILES: c1ccc(-c2ncc3cnccn23)cc1
- survivor count [3]: 6 of 6
- survivor count [4]: 0 of 6
- survivor count [5]: 0 of 6

SMILES: CC[NH-].CC[NH-].[Br][Pt+2][Br]
- T/C (dose: 13.0 mg/kg/injection, schedule: Q04DX003 (ip), vehicle: other): 129 % of control
- survivor count (dose: 400.0 mg/kg/injection, schedule: Q04DX003 (ip), vehicle: other): 4 of 6

SMILES: COc1cc2cc(c1Cl)N(C)C(=O)CC(OC(=O)C(C)N(C)C(=O)C(C)C)C1(C)OC1C(C)C1CC(O)(NC(=O)O1)C(OC)/C=C/C=C(C)C2 (stereo unspecified)
- T/C (dose: 0.1 micrograms/kg/injection, schedule: Q01DX009 (ip), vehicle: saline + alcohol): 125 % of control [5 of 6 alive]
- T/C (dose: 3.1 micrograms/kg/injection, schedule: Q01DX009 (ip), vehicle: saline + alcohol): 145 % of control
- survivor count [1]: 6 of 6
- survivor count [2]: 1 of 6

SMILES: Nc1nc2ncc(CNc3ccc(C(=O)NC(CCC(=O)O)C(=O)O)cc3)nc2c(=O)[nH]1 (stereo unspecified)
- survivor count (dose: 100.0 mg/kg/injection, schedule: Q01DX010 (ip), vehicle: saline): 4 of 6
- survivor count (dose: 200.0 mg/kg/injection, schedule: Q01DX010 (ip), vehicle: saline): 1 of 6
- survivor count (dose: 400.0 mg/kg/injection, schedule: Q01DX010 (ip), vehicle: saline): 0 of 6

SMILES: CCN1/C(=C/C=C/C=C/c2sc3ccccc3[n+]2CC)Sc2ccccc21
- T/C (dose: 0.19 mg/kg/injection, schedule: Q01DX009 (ip), vehicle: suspension in saline): 139 % of control
- T/C (dose: 0.38 mg/kg/injection, schedule: Q01DX009 (ip), vehicle: suspension in saline): 141 % of control [4 of 6 alive]
- survivor count (dose: 0.75 mg/kg/injection, schedule: Q01DX009 (ip), vehicle: suspension in saline): 0 of 6
- survivor count (dose: 1.5 mg/kg/injection, schedule: Q01DX009 (ip), vehicle: suspension in saline): 0 of 6

SMILES: CCOC(=O)C(=O)CC(=O)/C=C/c1ccccc1
- survivor count (dose: 400.0 mg/kg/injection, schedule: Q01DX009 (ip), vehicle: saline with Tween-80): 5 of 6

SMILES: O=C1CCCCCC1Cc1cc(O)c(CC2CCCCCC2=O)cc1O (stereo unspecified)
- T/C [6]: 128 % of control

SMILES: CCOC(=O)Nc1cc(NC(C)CCCN(CC)CC)c2ncc(-c3cc(OC)c(OC)c(OC)c3)nc2n1 (stereo unspecified) (tested in a mixture with another compound)
- T/C [4]: 130 % of control [4 of 6 alive]
- survivor count [5]: 3 of 6

SMILES: Cc1cc(N(CCCl)CCCl)ccc1N=Nc1ccccc1C(=O)[O-].Cc1cc(N(CCCl)CCCl)ccc1N=Nc1ccccc1C(=O)[O-].[Cu+2]
- T/C (dose: 37.5 mg/kg/injection, schedule: Q04DX003 (ip), vehicle: saline with Tween-80): 135 % of control

SMILES: CCOC(=O)Cc1c[nH]c2ccc(N(CCCl)CCCl)cc12
- T/C (dose: 0.3 mg/kg/injection, schedule: Q01DX009 (ip), vehicle: Klucel (hydroxypropylcellulose) (HPC)): 137 % of control
- T/C (dose: 0.4 mg/kg/injection, schedule: Q04DX003 (ip), vehicle: Klucel (hydroxypropylcellulose) (HPC)): 129 and 140 % of control
- T/C (dose: 0.6 mg/kg/injection, schedule: Q04DX003 (ip), vehicle: Klucel (hydroxypropylcellulose) (HPC)): 140 % of control
- survivor count (dose: 12.0 mg/kg/injection, schedule: Q01DX009 (ip), vehicle: Klucel (hydroxypropylcellulose) (HPC)): 6 of 6
- survivor count [7]: 3 of 6

SMILES: Cc1cccc(-n2c(CC#N)n[nH]c2=S)c1
- survivor count [6]: 6 of 6

SMILES: C(CCC1CO1)CC1CO1 (stereo unspecified)
- survivor count (dose: 200.0 mg/kg/injection, schedule: Q04DX002 (ip), vehicle: saline with Tween-80): 6 of 6
- survivor count (dose: 400.0 mg/kg/injection, schedule: Q04DX002 (ip), vehicle: saline with Tween-80): 6 of 6

SMILES: O=C1C=CC(=O)O1 (tested in a mixture with another compound)
- survivor count (dose: 2.0 mg/kg/injection, schedule: Q01DX009 (ip), vehicle: Klucel (hydroxypropylcellulose) (HPC)): 5 of 6
- survivor count (dose: 3.0 mg/kg/injection, schedule: Q01DX009 (ip), vehicle: Klucel (hydroxypropylcellulose) (HPC)): 0 of 6
- survivor count (dose: 3.12 mg/kg/injection, schedule: Q01DX009 (ip), vehicle: other): 4 of 6
- survivor count (dose: 6.25 mg/kg/injection, schedule: Q01DX009 (ip), vehicle: other): 1 of 6
- survivor count (dose: 11.0 mg/kg/injection, schedule: Q04DX003 (ip), vehicle: Klucel (hydroxypropylcellulose) (HPC)): 0 of 6
- survivor count (dose: 16.0 mg/kg/injection, schedule: Q04DX003 (ip), vehicle: Klucel (hydroxypropylcellulose) (HPC)): 1 of 6
- survivor count [7]: 2 of 6
- survivor count (dose: 22.0 mg/kg/injection, schedule: Q01DX009 (ip), vehicle: saline): 6 of 6
- T/C [3]: 126 % of control
- survivor count [3]: 6 of 6
- survivor count (dose: 29.0 mg/kg/injection, schedule: Q04DX003 (ip), vehicle: Klucel (hydroxypropylcellulose) (HPC)): 1 of 6
- survivor count (dose: 33.0 mg/kg/injection, schedule: Q01DX009 (ip), vehicle: saline): 5 of 6
- survivor count (dose: 45.0 mg/kg/injection, schedule: Q04DX003 (ip), vehicle: Klucel (hydroxypropylcellulose) (HPC)): 2 of 6
- T/C [8]: 132, 140, 141 % of control
- survivor count [8]: 6 of 6 (2×)
- survivor count (dose: 75.0 mg/kg/injection, schedule: Q01DX009 (ip), vehicle: saline): 6 of 6
- T/C (dose: 88.0 mg/kg/injection, schedule: Q04DX003 (ip), vehicle: saline): 141 % of control
- survivor count [4]: 6 of 6
- T/C (dose: 100.0 mg/kg/injection, schedule: Q04DX003 (ip), vehicle: saline): 135 and 138 % of control
- T/C (dose: 132.0 mg/kg/injection, schedule: Q04DX003 (ip), vehicle: saline): 133 % of control
- T/C [9]: 129 % of control
- T/C [5]: 125, 129, 146 % of control
- T/C [10]: 131 % of control
- survivor count [10]: 5 of 6 and 6 of 6
- T/C [11]: 147 % of control
- survivor count [11]: 1 of 6 and 2 of 6
- T/C [12]: 125 [5 of 6 alive], 129 [5 of 6 alive], 145, 146 % of control [5 of 6 alive]
- survivor count [12]: 2 of 6, 3 of 6, 4 of 6 (2×)
- survivor count (dose: 500.0 mg/kg/injection, schedule: Q04DX003 (ip), vehicle: saline): 2 of 6, 3 of 6, 5 of 6

SMILES: COc1cc(/C=C(/C)[N+](=O)[O-])cc(Br)c1OC
- survivor count (dose: 200.0 mg/kg/injection, schedule: Q04DX003 (ip), vehicle: saline with Tween-80): 5 of 6
- survivor count (dose: 400.0 mg/kg/injection, schedule: Q04DX003 (ip), vehicle: saline with Tween-80): 2 of 6

SMILES: C[C@]12CCC(=O)C[C@@H]1CC[C@@H]1[C@@H]2CC[C@]2(C)[C@@H](OC(=O)N(CCCl)N=O)CC[C@@H]12
- survivor count [8]: 6 of 6
- survivor count [9]: 6 of 6

SMILES: CC1CCCCN1CCNc1ccc(CO)c2sc3ccccc3c(=O)c12 (stereo unspecified)
- T/C (dose: 66.0 mg/kg/injection, schedule: Q01DX009 (ip), vehicle: saline with Tween-80): 144 % of control
